Results on one molecule are retold here after article PMC11209018.

By UniProt entry, the sequences of proteins in these tests, tags left out. Where a name states a change or a piece, a line headed by the entry shows the natural chain unless it says otherwise.
UniProt Q01167: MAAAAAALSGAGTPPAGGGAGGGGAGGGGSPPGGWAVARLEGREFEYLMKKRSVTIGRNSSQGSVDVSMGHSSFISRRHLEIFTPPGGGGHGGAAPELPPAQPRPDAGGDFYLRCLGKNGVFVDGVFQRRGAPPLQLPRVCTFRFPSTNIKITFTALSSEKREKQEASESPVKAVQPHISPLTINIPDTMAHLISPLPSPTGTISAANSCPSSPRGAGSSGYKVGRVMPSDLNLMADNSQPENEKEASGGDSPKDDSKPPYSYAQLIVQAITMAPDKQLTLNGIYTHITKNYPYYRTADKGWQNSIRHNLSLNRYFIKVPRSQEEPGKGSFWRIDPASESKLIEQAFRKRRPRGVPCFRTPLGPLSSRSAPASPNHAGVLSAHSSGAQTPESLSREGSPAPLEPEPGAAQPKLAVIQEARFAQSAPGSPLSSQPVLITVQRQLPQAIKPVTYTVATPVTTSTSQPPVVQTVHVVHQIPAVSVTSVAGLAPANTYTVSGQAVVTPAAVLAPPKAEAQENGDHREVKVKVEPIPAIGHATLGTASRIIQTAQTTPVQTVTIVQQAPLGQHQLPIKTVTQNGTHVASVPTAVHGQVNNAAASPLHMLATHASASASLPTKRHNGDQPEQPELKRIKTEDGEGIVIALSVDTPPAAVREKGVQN

This experiment concerns the target FOXK2-Flag ΔFHD (UniProt Q01167). Briefly: co-IP; cells (BEAS-2B by the legend, HEK-293T by the methods) cotransfected for 48 h with FBXO24-V5 and FOXK2-Flag Wt or deletion plasmids; lysis Buffer A (PBS, 0.2% SDS, 0.05% Triton); anti-Flag M2 magnetic beads, RT, 30 min; immunoblot for FBXO24.

No constants are given. Whether binding was seen depends on the method and setting. In cells and extracts the contact can be indirect. Binding can be weak; no strength is given. Tags and fused reporters may be left off the sequences shown.

B1: FBXO24-V5 (protein, UniProt O75426 1-580)
chain: MGEKAVPLLRRRRVKRSCPSCGSELGVEEKRGKGNPISIQLFPPELVEHIISFLPVRDLVALGQTCRYFHEVCDGEGVWRRICRRLSPRLQDQGSGVRPWKRAAILNYTKGLYFQAFGGRRRCLSKSVAPLLAHGYRRFLPTKDHVFILDYVGTLFFLKNALVSTLGQMQWKRACRYVVLCRGAKDFASDPRCDTVYRKYLYVLATREPQEVVGTTSSRACDCVEVYLQSSGQRVFKMTFHHSMTFKQIVLVGQETQRALLLLTEEGKIYSLVVNETQLDQPRSYTVQLALRKVSHYLPHLRVACMTSNQSSTLYVTDQGGVYFEVHTPGVYRDLFGTLQAFDPLDQQMPLALSLPAKILFCALGYNHLGLVDEFGRIFMQGNNRYGQLGTGDKMDRGEPTQVCYLQRPITLWCGLNHSLVLSQSSEFSKELLGCGCGAGGRLPGWPKGSASFVKLQVKVPLCACALCATRECLYILSSHDIEQHAPYRHLPASRVVGTPEPSLGARAPQDPGGMAQACEEYLSQIHSCQTLQDRTEKMKEIVGWMPLMAAQKDFFWEALDMLQRAEGGGGGVGPPAPET
Take B1: the binding result was “binds”.
